Assay results published in PMC9945777.
These are yes or no findings as the source states them, for the method shown. Some results given as binding are weak or reduced against the parent protein; the word gives no strength.

T1: SsoCsm Cas5 subunit (1431) (Saccharolobus solfataricus (endogenous)) (UniProt Q97YA1)
T1 sequence: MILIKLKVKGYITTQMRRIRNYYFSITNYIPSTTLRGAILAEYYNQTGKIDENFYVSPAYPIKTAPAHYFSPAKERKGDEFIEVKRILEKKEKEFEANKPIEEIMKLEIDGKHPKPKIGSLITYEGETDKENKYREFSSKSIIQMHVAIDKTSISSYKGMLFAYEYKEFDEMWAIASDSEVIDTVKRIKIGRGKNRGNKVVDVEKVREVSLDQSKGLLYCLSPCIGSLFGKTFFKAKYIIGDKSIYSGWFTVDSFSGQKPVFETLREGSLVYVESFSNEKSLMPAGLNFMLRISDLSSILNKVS

T2: SsoCsm Cas7a subunit (1430) (Saccharolobus solfataricus (endogenous)) (UniProt Q97YA2)
T2 sequence: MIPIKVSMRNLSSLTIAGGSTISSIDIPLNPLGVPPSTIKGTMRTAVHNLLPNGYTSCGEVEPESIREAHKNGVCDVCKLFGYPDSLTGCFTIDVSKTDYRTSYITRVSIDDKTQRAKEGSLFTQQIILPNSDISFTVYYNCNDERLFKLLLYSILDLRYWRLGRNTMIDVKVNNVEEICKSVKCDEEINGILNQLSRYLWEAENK

T3: SsoCsm Cas7b subunit (1432) (Saccharolobus solfataricus (endogenous)) (UniProt Q97YA0)
T3 sequence: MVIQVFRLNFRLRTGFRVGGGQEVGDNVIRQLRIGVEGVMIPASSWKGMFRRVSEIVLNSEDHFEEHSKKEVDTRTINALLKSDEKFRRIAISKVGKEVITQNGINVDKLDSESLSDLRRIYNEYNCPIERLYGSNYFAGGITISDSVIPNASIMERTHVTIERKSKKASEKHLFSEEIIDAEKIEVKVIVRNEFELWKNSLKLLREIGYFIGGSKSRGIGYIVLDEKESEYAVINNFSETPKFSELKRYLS

T4: SsoCsm Cas7c subunit (1425) (Saccharolobus solfataricus (endogenous)) (UniProt Q97YA7)
T4 sequence: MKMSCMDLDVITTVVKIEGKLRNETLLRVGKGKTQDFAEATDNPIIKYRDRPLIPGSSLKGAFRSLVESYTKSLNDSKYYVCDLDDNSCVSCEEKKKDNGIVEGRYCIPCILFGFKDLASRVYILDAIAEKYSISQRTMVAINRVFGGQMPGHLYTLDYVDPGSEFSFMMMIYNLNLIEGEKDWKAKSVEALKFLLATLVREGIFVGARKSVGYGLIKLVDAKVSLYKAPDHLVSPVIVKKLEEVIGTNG

T5: SsoCsm Cas7d subunit (1426) (Saccharolobus solfataricus (endogenous)) (UniProt Q97YA6)
T5 sequence: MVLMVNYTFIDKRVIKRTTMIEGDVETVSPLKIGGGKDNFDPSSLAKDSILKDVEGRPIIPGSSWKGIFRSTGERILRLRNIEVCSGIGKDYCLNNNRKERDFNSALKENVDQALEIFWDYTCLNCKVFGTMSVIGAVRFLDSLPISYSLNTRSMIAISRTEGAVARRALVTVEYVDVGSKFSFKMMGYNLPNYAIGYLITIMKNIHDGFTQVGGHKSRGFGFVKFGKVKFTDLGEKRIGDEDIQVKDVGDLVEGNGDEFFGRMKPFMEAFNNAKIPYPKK

B1: SsoCsm Cas7a subunit (1430) (protein, UniProt Q97YA2 1-206)
chain: MIPIKVSMRNLSSLTIAGGSTISSIDIPLNPLGVPPSTIKGTMRTAVHNLLPNGYTSCGEVEPESIREAHKNGVCDVCKLFGYPDSLTGCFTIDVSKTDYRTSYITRVSIDDKTQRAKEGSLFTQQIILPNSDISFTVYYNCNDERLFKLLLYSILDLRYWRLGRNTMIDVKVNNVEEICKSVKCDEEINGILNQLSRYLWEAENK
B2: SsoCsm Cas7b subunit (1432) (protein, UniProt Q97YA0 1-252)
chain: MVIQVFRLNFRLRTGFRVGGGQEVGDNVIRQLRIGVEGVMIPASSWKGMFRRVSEIVLNSEDHFEEHSKKEVDTRTINALLKSDEKFRRIAISKVGKEVITQNGINVDKLDSESLSDLRRIYNEYNCPIERLYGSNYFAGGITISDSVIPNASIMERTHVTIERKSKKASEKHLFSEEIIDAEKIEVKVIVRNEFELWKNSLKLLREIGYFIGGSKSRGIGYIVLDEKESEYAVINNFSETPKFSELKRYLS
B3: SsoCsm Cas7c subunit (1425) (protein, UniProt Q97YA7 1-250)
chain: MKMSCMDLDVITTVVKIEGKLRNETLLRVGKGKTQDFAEATDNPIIKYRDRPLIPGSSLKGAFRSLVESYTKSLNDSKYYVCDLDDNSCVSCEEKKKDNGIVEGRYCIPCILFGFKDLASRVYILDAIAEKYSISQRTMVAINRVFGGQMPGHLYTLDYVDPGSEFSFMMMIYNLNLIEGEKDWKAKSVEALKFLLATLVREGIFVGARKSVGYGLIKLVDAKVSLYKAPDHLVSPVIVKKLEEVIGTNG
B4: SsoCsm Cas7d subunit (1426) (protein, UniProt Q97YA6 1-281)
chain: MVLMVNYTFIDKRVIKRTTMIEGDVETVSPLKIGGGKDNFDPSSLAKDSILKDVEGRPIIPGSSWKGIFRSTGERILRLRNIEVCSGIGKDYCLNNNRKERDFNSALKENVDQALEIFWDYTCLNCKVFGTMSVIGAVRFLDSLPISYSLNTRSMIAISRTEGAVARRALVTVEYVDVGSKFSFKMMGYNLPNYAIGYLITIMKNIHDGFTQVGGHKSRGFGFVKFGKVKFTDLGEKRIGDEDIQVKDVGDLVEGNGDEFFGRMKPFMEAFNNAKIPYPKK
B5: SsoCsm Cas7e subunit (1427) (protein, UniProt Q97YA5 1-275)
chain: MQRSPIRRSNYTPRNEKGLEGVIELQLNVVSDYLHVGSGKYDVEVMRSVSDVKRLVEDYLSGGNKRIPNNVDQYFSMVAFLMVRNKDNVVIPGSTIKGMVRSRLELSVPGSCYIVTGHSTSSSAVYKRIFNPDPNRGSDRFDVNKFPQVCPVCDLLGNMGLASRVSLSDFVMTSGKVDYVNVKGRDYEVVTKGSIFAGKVLYKSLKPVEIGMLLYGFGFVKDCNGSKVMLLGRFKFSDKRFGRVKFSLKTPIADCNKLVSDFVKQFNPRYINEEW
B6: SsoCsm Cas11 subunit (1424) (protein, UniProt Q97YA8 1-139)
chain: MRVKHYIQREFNYSVSSQDLLDIATRIAISAIKPKPKSNKPEPYVDSSTINSLLSFLQSRRNVNELLLYIMRQAGRDEIDEETGKLLLASLKDRELKDAVNLLGYVKWVYDTLTGLKVNYNNVKGVKTFKELVNILSKV

Assays:
Experiment in all cases: cryo-EM structure; SsoCsm complex purified from S. solfataricus with heterogeneous bound 48 nt crRNA; graphene oxide coated grids, Volta phase plate; overall resolution 3.52 Å; ColabFold models of the subunits fitted into a composite multibody map and refined; both purified
[1] = target: T1, SsoCsm Cas5 subunit (1431) (Saccharolobus solfataricus (endogenous))
[2] = target: T2, SsoCsm Cas7a subunit (1430) (Saccharolobus solfataricus (endogenous))
[3] = target: T3, SsoCsm Cas7b subunit (1432) (Saccharolobus solfataricus (endogenous))
[4] = target: T4, SsoCsm Cas7c subunit (1425) (Saccharolobus solfataricus (endogenous))
[5] = target: T5, SsoCsm Cas7d subunit (1426) (Saccharolobus solfataricus (endogenous))
[6] = target: SsoCsm Cas11 subunit (1424) (Saccharolobus solfataricus (endogenous)) (UniProt Q97YA8)

Row | Binder | binding [4] | binding [5] | also measured
1 | B1 | – | – | binding [1]: binds
2 | B2 | – | – | binding [2]: binds
3 | B3 | binds | – | binding [3]: binds
4 | B4 | binds | binds | –
5 | B5 | – | binds | –
6 | B6 | – | – | binding [6]: binds
